Laboratory results: PMC12115799
Results are given in words; binding and its absence hold for the method and conditions named. In cells and extracts the contact can be indirect. Some binding calls cover weakened binding; strength is not graded here.

By UniProt entry, the sequences of proteins in these tests, tags left out.
UniProt Q8WZA2: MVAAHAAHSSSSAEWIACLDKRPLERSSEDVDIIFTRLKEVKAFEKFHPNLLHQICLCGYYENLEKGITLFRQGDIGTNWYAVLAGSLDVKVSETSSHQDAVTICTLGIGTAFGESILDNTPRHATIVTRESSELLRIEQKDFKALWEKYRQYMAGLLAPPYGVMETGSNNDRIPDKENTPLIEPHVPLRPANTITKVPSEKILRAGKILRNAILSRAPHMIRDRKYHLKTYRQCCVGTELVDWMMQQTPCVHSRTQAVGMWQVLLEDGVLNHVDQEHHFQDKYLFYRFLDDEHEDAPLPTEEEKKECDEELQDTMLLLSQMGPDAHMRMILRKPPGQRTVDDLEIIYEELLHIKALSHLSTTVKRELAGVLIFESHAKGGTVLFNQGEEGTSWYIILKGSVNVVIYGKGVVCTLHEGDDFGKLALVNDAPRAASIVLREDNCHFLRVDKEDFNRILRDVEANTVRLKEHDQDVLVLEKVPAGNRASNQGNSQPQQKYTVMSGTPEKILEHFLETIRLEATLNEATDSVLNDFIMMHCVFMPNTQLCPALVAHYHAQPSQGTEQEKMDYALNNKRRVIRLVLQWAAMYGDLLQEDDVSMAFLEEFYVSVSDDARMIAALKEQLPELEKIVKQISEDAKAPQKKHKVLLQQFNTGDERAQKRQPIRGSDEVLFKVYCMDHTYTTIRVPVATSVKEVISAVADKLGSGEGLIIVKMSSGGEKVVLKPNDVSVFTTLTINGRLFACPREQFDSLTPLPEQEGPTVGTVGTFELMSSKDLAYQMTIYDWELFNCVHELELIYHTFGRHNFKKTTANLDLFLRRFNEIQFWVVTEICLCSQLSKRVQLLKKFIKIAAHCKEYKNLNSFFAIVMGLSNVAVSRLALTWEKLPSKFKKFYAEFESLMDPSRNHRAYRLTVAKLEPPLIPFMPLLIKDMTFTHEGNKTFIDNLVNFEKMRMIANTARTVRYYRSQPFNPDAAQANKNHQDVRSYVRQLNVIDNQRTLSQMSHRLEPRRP

Target: endogenous EPAC2 (human (endogenous in A549)) (UniProt Q8WZA2)
Assay: co-IP

B1: junction plakoglobin (JUP) (protein, UniProt P14923 1-745)
chain: MEVMNLMEQPIKVTEWQQTYTYDSGIHSGANTCVPSVSSKGIMEEDEACGRQYTLKKTTTYTQGVPPSQGDLEYQMSTTARAKRVREAMCPGVSGEDSSLLLATQVEGQATNLQRLAEPSQLLKSAIVHLINYQDDAELATRALPELTKLLNDEDPVVVTKAAMIVNQLSKKEASRRALMGSPQLVAAVVRTMQNTSDLDTARCTTSILHNLSHHREGLLAIFKSGGIPALVRMLSSPVESVLFYAITTLHNLLLYQEGAKMAVRLADGLQKMVPLLNKNNPKFLAITTDCLQLLAYGNQESKLIILANGGPQALVQIMRNYSYEKLLWTTSRVLKVLSVCPSNKPAIVEAGGMQALGKHLTSNSPRLVQNCLWTLRNLSDVATKQEGLESVLKILVNQLSVDDVNVLTCATGTLSNLTCNNSKNKTLVTQNSGVEALIHAILRAGDKDDITEPAVCALRHLTSRHPEAEMAQNSVRLNYGIPAIVKLLNQPNQWPLVKATIGLIRNLALCPANHAPLQEAAVIPRLVQLLVKAHQDAQRHVAAGTQQPYTDGVRMEEIVEGCTGALHILARDPMNRMEIFRLNTIPLFVQLLYSSVENIQRVAAGVLCELAQDKEAADAIDAEGASAPLMELLHSRNEGTATYAAAVLFRISEDKNPDYRKRVSVELTNSLFKHDPAAWEAAQSMIPINEPYGDDMDATYRPMYSSDVPLDPLEMHMDMDGDYPIDTYSDGLRPPYPTADHMLA
In the case of B1, the binding is reported as “binds”.
